# Experimental data: PubChem BioAssay AID1053209 (Peter MacCallum Cancer Centre, 2014)
# Aim: 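Follow-up of single siRNAs that strengthen doxorubicin killing in osteosarcoma cells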 (follow-up of hits)
# Cells: mouse primary osteosarcoma cells
# Reagents: single siRNA against mouse genes, 25 nM (text also states 40 nM)
# Timing: about 120 h (48 h before drug, then 72 h with drug)
# Conditions: doxorubicin 100 nM (about IC30-40), added 48 h after transfection, for 72 h
# Read-out: 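Viability measured by ATP luminescence with and without doxorubicin, each replicate scaled to non-targeting siRNA NT1, averaged over two replicates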
# Scale: viability with doxorubicin, vs NT1: higher = more viable cells under doxorubicin; viability ratio, doxorubicin over no drug: higher = less sensitisation to doxorubicin; viability without drug, vs NT1: higher = more viable cells without drug
# Hit rule: 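Active when doxorubicin viability is at most 0.7 of NT1 and drug-free viability lies between 0.7 and 1.1, class LC dox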
# This is a random part of about 1,580 reagents tested. In the full data, 207 (13%) are marked active. 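Rows are single siRNAs; four siRNAs per gene were tested, a gene counting as confirmed only when at least two agree.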 Reagent sequences are not shown.
gene,PubChem SID,combined effect class,"viability with doxorubicin, vs NT1","viability ratio, doxorubicin over no drug","viability without drug, vs NT1",call
"Copb1 (coatomer protein complex, subunit beta 1)",SID152264612,low viability with and without drug,0.06,0.29,0.21,inactive
"Copb1 (coatomer protein complex, subunit beta 1)",SID152285595,normal viability with and without drug,1,1.05,0.95,inactive
"Copb1 (coatomer protein complex, subunit beta 1)",SID152322018,normal viability with and without drug,1.09,1.12,0.97,inactive
"Copb1 (coatomer protein complex, subunit beta 1)",SID152339226,low viability with and without drug,0.08,0.5,0.16,inactive
Rps28 (ribosomal protein S28),SID152271807,low viability only with doxorubicin; normal without drug,0.68,0.81,0.84,active
Rps28 (ribosomal protein S28),SID152280421,low viability with and without drug,0.4,0.62,0.64,inactive
Rps28 (ribosomal protein S28),SID152313103,low viability with and without drug,0.25,0.61,0.41,inactive
Rps28 (ribosomal protein S28),SID152339720,low viability only with doxorubicin; normal without drug,0.57,0.73,0.78,active
Rplp0 (ribosomal protein lateral stalk subunit P0),SID152260119,low viability only with doxorubicin; normal without drug,0.63,0.81,0.78,active
Rplp0 (ribosomal protein lateral stalk subunit P0),SID152264824,low viability with and without drug,0.31,0.82,0.38,inactive
Rplp0 (ribosomal protein lateral stalk subunit P0),SID152284958,normal viability with and without drug,0.97,1.1,0.88,inactive
Rplp0 (ribosomal protein lateral stalk subunit P0),SID152287837,low viability with and without drug,0.44,0.81,0.54,inactive
Zfp184 (zinc finger protein 184 (Kruppel-like)),SID152265838,normal viability with and without drug,0.96,1,0.96,inactive
Zfp184 (zinc finger protein 184 (Kruppel-like)),SID152287096,high viability only with doxorubicin,1.12,1.11,1.01,inactive
Zfp184 (zinc finger protein 184 (Kruppel-like)),SID152319719,high viability only with doxorubicin,1.17,1.07,1.09,inactive
Zfp184 (zinc finger protein 184 (Kruppel-like)),SID152324739,normal viability with and without drug,0.93,0.92,1.01,inactive
"Psmb5 (proteasome (prosome, macropain) subunit, beta type 5)",SID152272813,normal viability with and without drug,0.9,1.11,0.81,inactive
"Psmb5 (proteasome (prosome, macropain) subunit, beta type 5)",SID152311660,low viability with and without drug,0.19,0.37,0.52,inactive
"Psmb5 (proteasome (prosome, macropain) subunit, beta type 5)",SID152319659,low viability with and without drug,0.13,0.34,0.38,inactive
"Psmb5 (proteasome (prosome, macropain) subunit, beta type 5)",SID152332385,low viability with and without drug,0.17,0.39,0.44,inactive
Stap2 (signal transducing adaptor family member 2),SID152270178,high viability only with doxorubicin,1.12,1.12,1,inactive
Stap2 (signal transducing adaptor family member 2),SID152275997,normal viability with and without drug,0.98,1,0.98,inactive
Stap2 (signal transducing adaptor family member 2),SID152298717,normal viability with and without drug,0.98,0.98,1,inactive
Stap2 (signal transducing adaptor family member 2),SID152326571,low viability only with doxorubicin; normal without drug,0.46,0.52,0.88,active
"Eif3g (eukaryotic translation initiation factor 3, subunit G)",SID152298192,low viability only with doxorubicin; normal without drug,0.56,0.78,0.72,active
"Eif3g (eukaryotic translation initiation factor 3, subunit G)",SID152300884,low viability with and without drug,0.3,0.86,0.35,inactive
"Eif3g (eukaryotic translation initiation factor 3, subunit G)",SID152306079,low viability with and without drug,0.6,0.92,0.65,inactive
"Eif3g (eukaryotic translation initiation factor 3, subunit G)",SID152323582,low viability with and without drug,0.42,0.64,0.66,inactive
Mrpl38 (mitochondrial ribosomal protein L38),SID152277518,high viability only with doxorubicin,1.12,1.14,0.98,inactive
Mrpl38 (mitochondrial ribosomal protein L38),SID152282422,normal viability with and without drug,1,0.98,1.02,inactive
Mrpl38 (mitochondrial ribosomal protein L38),SID152313117,normal viability with and without drug,1,1.04,0.96,inactive
Mrpl38 (mitochondrial ribosomal protein L38),SID152325289,normal viability with and without drug,1.08,1.09,0.99,inactive
"Psmb3 (proteasome (prosome, macropain) subunit, beta type 3)",SID152284570,low viability only with doxorubicin; normal without drug,0.67,0.73,0.92,active
"Psmb3 (proteasome (prosome, macropain) subunit, beta type 3)",SID152319657,normal viability with and without drug,0.86,1.01,0.85,inactive
"Psmb3 (proteasome (prosome, macropain) subunit, beta type 3)",SID152325159,low viability only with doxorubicin; normal without drug,0.68,0.77,0.88,active
"Psmb3 (proteasome (prosome, macropain) subunit, beta type 3)",SID152332597,low viability with and without drug,0.34,0.49,0.7,inactive
Gpn1 (GPN-loop GTPase 1),SID152260083,low viability only with doxorubicin; normal without drug,0.56,0.74,0.76,active
Gpn1 (GPN-loop GTPase 1),SID152309191,low viability only with doxorubicin; normal without drug,0.66,0.8,0.82,active
Gpn1 (GPN-loop GTPase 1),SID152310321,low viability only with doxorubicin; normal without drug,0.66,0.74,0.89,active
Gpn1 (GPN-loop GTPase 1),SID152312735,normal viability with and without drug,1.06,1.02,1.04,inactive
Socs5 (suppressor of cytokine signaling 5),SID152273241,normal viability with and without drug,0.99,1.01,0.98,inactive
Socs5 (suppressor of cytokine signaling 5),SID152311517,normal viability with and without drug,1.06,1.08,0.98,inactive
Socs5 (suppressor of cytokine signaling 5),SID152313736,normal viability with and without drug,1.09,1.09,1,inactive
Socs5 (suppressor of cytokine signaling 5),SID152319394,normal viability with and without drug,0.82,0.96,0.85,inactive
"Rap2c (RAP2C, member of RAS oncogene family)",SID152286518,normal viability with and without drug,1,1.01,0.99,inactive
"Rap2c (RAP2C, member of RAS oncogene family)",SID152321679,normal viability with and without drug,0.94,0.97,0.97,inactive
"Rap2c (RAP2C, member of RAS oncogene family)",SID152324126,normal viability with and without drug,1.03,1.17,0.88,inactive
"Rap2c (RAP2C, member of RAS oncogene family)",SID152342786,normal viability with and without drug,0.98,1.02,0.96,inactive

Called active (from the list above):
gene,PubChem SID,combined effect class,"viability with doxorubicin, vs NT1","viability ratio, doxorubicin over no drug","viability without drug, vs NT1",call
Rps28 (ribosomal protein S28),SID152271807,low viability only with doxorubicin; normal without drug,0.68,0.81,0.84,active
Rps28 (ribosomal protein S28),SID152339720,low viability only with doxorubicin; normal without drug,0.57,0.73,0.78,active
Rplp0 (ribosomal protein lateral stalk subunit P0),SID152260119,low viability only with doxorubicin; normal without drug,0.63,0.81,0.78,active
Stap2 (signal transducing adaptor family member 2),SID152326571,low viability only with doxorubicin; normal without drug,0.46,0.52,0.88,active
"Eif3g (eukaryotic translation initiation factor 3, subunit G)",SID152298192,low viability only with doxorubicin; normal without drug,0.56,0.78,0.72,active
"Psmb3 (proteasome (prosome, macropain) subunit, beta type 3)",SID152284570,low viability only with doxorubicin; normal without drug,0.67,0.73,0.92,active
"Psmb3 (proteasome (prosome, macropain) subunit, beta type 3)",SID152325159,low viability only with doxorubicin; normal without drug,0.68,0.77,0.88,active
Gpn1 (GPN-loop GTPase 1),SID152260083,low viability only with doxorubicin; normal without drug,0.56,0.74,0.76,active
Gpn1 (GPN-loop GTPase 1),SID152309191,low viability only with doxorubicin; normal without drug,0.66,0.8,0.82,active
Gpn1 (GPN-loop GTPase 1),SID152310321,low viability only with doxorubicin; normal without drug,0.66,0.74,0.89,active

The results go on:
gene,PubChem SID,combined effect class,"viability with doxorubicin, vs NT1","viability ratio, doxorubicin over no drug","viability without drug, vs NT1",call
Rplp2 (ribosomal protein lateral stalk subunit P2),SID152297361,low viability with and without drug,0.36,1,0.36,inactive
Rplp2 (ribosomal protein lateral stalk subunit P2),SID152337075,low viability with and without drug,0.46,0.81,0.57,inactive
Rplp2 (ribosomal protein lateral stalk subunit P2),SID152337754,low viability with and without drug,0.46,0.96,0.48,inactive
Rplp2 (ribosomal protein lateral stalk subunit P2),SID193126384,low viability with and without drug,0.38,0.88,0.43,inactive
Bak1 (BCL2-antagonist/killer 1),SID152271712,high viability only with doxorubicin,1.12,1.15,0.97,inactive
Bak1 (BCL2-antagonist/killer 1),SID152280759,normal viability with and without drug,0.9,0.97,0.93,inactive
Bak1 (BCL2-antagonist/killer 1),SID152307470,normal viability with and without drug,1.04,1.07,0.97,inactive
Bak1 (BCL2-antagonist/killer 1),SID152312424,high viability only with doxorubicin,1.16,1.18,0.98,inactive
Rpl37a (ribosomal protein L37a),SID152262360,low viability with and without drug,0.18,0.43,0.42,inactive
Rpl37a (ribosomal protein L37a),SID152280003,low viability with and without drug,0.32,0.82,0.39,inactive
Rpl37a (ribosomal protein L37a),SID152289421,low viability with and without drug,0.34,0.59,0.58,inactive
Rpl37a (ribosomal protein L37a),SID152294421,low viability with and without drug,0.31,0.67,0.46,inactive
"Polk (polymerase (DNA directed), kappa)",SID152264046,normal viability with and without drug,0.92,0.98,0.94,inactive
"Polk (polymerase (DNA directed), kappa)",SID152271231,normal viability with and without drug,1.07,1.08,0.99,inactive
"Polk (polymerase (DNA directed), kappa)",SID152289784,normal viability with and without drug,0.96,0.98,0.98,inactive
"Polk (polymerase (DNA directed), kappa)",SID152339182,normal viability with and without drug,1.06,1.06,1,inactive
Bop1 (block of proliferation 1),SID152273853,normal viability with and without drug,0.85,1.15,0.74,inactive
Bop1 (block of proliferation 1),SID152284123,normal viability with and without drug,0.87,1.02,0.85,inactive
Bop1 (block of proliferation 1),SID152331845,normal viability with and without drug,0.72,0.8,0.9,inactive
Bop1 (block of proliferation 1),SID152334190,low viability only without drug,0.71,1.04,0.68,inactive
Vdac2 (voltage-dependent anion channel 2),SID152279434,high viability only without drug,0.86,0.78,1.1,inactive
Vdac2 (voltage-dependent anion channel 2),SID152322527,normal viability with and without drug,0.72,0.75,0.96,inactive
Vdac2 (voltage-dependent anion channel 2),SID152324668,normal viability with and without drug,0.74,0.74,1,inactive
Vdac2 (voltage-dependent anion channel 2),SID152342014,low viability only with doxorubicin; normal without drug,0.6,0.65,0.93,active
Ndufa8 (NADH:ubiquinone oxidoreductase subunit A8),SID152260896,normal viability with and without drug,0.75,0.77,0.98,inactive
Ndufa8 (NADH:ubiquinone oxidoreductase subunit A8),SID152269764,normal viability with and without drug,0.96,1.02,0.94,inactive
Ndufa8 (NADH:ubiquinone oxidoreductase subunit A8),SID152290961,normal viability with and without drug,0.9,0.92,0.98,inactive
Ndufa8 (NADH:ubiquinone oxidoreductase subunit A8),SID152303736,normal viability with and without drug,0.85,0.89,0.96,inactive
